These results are taken from the supplement of paper PMC12819154, “High-throughput peptide-centric local stability assay extends protein–ligand identification to membrane proteins, tissues and bacteria” (Nature Structural & Molecular Biology, 2025).

The chains behind the UniProt entries cited, without tags or fusion partners. Where a name states a change or a piece, a line headed by the entry shows the natural chain unless it says otherwise.
UniProt Q14019: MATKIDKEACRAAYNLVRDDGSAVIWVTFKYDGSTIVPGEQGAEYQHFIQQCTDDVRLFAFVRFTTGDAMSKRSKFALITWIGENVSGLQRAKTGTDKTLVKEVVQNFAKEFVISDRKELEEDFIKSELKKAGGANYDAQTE
UniProt Q14209: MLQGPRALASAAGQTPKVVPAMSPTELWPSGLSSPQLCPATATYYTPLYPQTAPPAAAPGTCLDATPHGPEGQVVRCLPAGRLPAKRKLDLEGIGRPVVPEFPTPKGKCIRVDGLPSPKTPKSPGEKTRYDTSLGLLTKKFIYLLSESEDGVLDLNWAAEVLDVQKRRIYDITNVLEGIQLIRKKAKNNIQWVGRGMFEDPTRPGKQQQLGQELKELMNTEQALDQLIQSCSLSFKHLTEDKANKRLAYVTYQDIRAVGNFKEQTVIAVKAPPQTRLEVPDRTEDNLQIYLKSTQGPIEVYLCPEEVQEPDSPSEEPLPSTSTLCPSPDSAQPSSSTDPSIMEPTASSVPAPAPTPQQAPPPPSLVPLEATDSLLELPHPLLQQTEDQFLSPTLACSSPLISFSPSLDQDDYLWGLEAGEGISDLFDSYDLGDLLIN
UniProt Q13595: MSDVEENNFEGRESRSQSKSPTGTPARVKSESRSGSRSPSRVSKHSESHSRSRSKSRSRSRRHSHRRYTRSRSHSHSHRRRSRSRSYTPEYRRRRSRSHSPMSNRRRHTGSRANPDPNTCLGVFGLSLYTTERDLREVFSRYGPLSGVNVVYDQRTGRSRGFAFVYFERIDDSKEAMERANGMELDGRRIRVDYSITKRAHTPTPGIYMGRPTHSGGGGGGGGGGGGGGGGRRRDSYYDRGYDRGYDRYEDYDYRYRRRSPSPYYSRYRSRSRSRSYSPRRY
UniProt Q13472: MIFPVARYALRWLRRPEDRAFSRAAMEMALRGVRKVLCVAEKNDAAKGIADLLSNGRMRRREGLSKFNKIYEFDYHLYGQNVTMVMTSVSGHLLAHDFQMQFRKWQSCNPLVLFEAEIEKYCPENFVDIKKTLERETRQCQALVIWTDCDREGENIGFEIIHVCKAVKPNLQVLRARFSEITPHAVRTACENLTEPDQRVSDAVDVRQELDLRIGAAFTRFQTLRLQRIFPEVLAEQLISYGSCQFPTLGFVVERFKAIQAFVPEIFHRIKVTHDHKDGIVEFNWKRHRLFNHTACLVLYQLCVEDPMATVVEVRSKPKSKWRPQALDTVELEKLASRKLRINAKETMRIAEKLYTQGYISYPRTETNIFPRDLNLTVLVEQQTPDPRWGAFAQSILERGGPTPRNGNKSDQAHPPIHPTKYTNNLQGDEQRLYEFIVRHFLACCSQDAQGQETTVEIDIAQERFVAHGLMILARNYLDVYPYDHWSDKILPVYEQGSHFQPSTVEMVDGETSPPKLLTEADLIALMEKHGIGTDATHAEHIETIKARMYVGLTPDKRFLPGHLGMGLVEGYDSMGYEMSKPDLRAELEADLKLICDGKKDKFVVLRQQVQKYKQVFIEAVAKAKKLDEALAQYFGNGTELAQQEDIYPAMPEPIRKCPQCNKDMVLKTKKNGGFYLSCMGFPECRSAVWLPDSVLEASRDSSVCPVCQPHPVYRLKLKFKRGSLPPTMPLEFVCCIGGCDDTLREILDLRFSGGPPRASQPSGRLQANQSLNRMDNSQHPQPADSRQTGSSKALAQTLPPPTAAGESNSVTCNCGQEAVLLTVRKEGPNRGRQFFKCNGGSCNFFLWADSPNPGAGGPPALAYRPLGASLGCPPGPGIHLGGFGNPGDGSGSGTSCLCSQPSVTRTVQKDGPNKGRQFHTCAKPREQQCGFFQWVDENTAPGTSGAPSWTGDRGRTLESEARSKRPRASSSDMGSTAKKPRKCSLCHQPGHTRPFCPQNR
UniProt Q13526, whole entry: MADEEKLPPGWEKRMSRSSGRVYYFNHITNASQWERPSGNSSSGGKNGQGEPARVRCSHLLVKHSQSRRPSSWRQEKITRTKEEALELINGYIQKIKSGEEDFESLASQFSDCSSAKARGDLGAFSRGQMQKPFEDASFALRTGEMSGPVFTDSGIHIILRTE
UniProt Q14147: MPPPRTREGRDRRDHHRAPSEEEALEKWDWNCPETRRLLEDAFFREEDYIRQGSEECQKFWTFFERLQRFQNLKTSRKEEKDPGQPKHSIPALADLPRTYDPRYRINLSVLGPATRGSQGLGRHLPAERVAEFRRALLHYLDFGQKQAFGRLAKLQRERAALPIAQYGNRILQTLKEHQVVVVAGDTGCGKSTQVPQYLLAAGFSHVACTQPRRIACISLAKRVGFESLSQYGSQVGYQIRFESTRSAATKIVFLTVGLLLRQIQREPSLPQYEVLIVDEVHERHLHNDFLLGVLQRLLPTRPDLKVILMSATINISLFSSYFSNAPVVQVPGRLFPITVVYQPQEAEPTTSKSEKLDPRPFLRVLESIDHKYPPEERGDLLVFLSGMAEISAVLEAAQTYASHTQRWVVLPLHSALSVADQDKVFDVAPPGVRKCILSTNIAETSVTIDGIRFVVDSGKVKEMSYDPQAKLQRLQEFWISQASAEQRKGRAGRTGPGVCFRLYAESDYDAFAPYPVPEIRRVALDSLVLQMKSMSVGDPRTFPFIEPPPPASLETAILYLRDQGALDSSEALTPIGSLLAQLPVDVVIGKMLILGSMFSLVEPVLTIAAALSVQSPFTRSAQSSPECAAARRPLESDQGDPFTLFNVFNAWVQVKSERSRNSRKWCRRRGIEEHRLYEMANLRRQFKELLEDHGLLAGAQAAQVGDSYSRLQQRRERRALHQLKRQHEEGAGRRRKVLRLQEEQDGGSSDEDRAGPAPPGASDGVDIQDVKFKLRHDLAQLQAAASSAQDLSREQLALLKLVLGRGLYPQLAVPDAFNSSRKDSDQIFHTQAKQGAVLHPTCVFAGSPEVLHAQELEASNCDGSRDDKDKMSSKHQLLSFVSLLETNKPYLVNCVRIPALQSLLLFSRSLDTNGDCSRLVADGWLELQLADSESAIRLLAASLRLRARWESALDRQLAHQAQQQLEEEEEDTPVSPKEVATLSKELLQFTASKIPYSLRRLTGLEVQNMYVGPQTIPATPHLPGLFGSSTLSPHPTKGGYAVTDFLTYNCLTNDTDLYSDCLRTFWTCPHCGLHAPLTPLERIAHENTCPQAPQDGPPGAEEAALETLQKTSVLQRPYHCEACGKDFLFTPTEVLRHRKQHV
UniProt Q14669: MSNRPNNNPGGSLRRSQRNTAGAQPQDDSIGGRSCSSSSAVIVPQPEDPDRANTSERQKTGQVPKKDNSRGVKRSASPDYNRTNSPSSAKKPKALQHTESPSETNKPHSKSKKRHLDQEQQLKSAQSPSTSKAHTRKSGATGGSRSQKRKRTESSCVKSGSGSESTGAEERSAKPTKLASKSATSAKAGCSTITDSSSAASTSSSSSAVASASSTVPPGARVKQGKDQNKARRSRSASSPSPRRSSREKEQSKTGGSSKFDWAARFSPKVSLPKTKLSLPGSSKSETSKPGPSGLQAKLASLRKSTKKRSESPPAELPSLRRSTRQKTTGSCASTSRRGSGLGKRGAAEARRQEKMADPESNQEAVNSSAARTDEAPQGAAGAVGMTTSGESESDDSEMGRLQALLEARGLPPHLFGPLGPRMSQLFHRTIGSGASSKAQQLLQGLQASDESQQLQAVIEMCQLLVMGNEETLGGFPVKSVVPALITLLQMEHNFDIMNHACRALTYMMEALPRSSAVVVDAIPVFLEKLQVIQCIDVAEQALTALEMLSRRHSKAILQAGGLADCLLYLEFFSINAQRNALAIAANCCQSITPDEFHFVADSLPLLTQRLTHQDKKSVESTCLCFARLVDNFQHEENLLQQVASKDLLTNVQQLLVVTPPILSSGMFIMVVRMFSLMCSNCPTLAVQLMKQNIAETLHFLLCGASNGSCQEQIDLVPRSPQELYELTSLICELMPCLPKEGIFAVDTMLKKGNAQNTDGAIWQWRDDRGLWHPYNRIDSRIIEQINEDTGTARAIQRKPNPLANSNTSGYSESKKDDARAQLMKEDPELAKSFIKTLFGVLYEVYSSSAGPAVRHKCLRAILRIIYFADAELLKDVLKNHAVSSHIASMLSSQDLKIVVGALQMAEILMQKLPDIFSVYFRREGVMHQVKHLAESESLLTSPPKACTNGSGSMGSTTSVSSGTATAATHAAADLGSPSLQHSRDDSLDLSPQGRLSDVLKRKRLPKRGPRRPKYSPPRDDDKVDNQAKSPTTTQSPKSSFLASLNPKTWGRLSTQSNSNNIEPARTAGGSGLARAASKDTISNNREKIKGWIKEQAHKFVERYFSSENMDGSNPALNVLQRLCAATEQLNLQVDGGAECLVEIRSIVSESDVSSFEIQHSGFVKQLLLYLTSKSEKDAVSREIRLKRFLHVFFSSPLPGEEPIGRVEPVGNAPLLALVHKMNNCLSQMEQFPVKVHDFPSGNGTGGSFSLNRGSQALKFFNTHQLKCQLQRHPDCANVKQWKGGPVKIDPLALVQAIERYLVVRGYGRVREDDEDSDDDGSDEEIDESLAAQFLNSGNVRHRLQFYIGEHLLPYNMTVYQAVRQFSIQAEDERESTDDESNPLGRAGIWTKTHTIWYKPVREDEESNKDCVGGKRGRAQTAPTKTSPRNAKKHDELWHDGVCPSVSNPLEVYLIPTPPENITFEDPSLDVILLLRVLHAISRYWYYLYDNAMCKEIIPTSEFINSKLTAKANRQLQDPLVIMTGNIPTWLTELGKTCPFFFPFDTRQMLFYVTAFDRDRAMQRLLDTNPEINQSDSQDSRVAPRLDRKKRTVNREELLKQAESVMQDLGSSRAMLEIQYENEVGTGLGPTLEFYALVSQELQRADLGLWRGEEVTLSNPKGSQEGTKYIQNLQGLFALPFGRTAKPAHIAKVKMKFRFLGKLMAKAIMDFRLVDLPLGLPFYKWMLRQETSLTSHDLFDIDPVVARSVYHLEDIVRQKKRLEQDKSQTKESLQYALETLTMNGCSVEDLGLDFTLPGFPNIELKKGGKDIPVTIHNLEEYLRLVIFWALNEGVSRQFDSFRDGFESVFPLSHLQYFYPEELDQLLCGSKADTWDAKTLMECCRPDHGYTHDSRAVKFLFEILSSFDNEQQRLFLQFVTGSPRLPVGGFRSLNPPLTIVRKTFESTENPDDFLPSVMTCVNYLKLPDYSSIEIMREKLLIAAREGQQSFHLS
UniProt Q14207: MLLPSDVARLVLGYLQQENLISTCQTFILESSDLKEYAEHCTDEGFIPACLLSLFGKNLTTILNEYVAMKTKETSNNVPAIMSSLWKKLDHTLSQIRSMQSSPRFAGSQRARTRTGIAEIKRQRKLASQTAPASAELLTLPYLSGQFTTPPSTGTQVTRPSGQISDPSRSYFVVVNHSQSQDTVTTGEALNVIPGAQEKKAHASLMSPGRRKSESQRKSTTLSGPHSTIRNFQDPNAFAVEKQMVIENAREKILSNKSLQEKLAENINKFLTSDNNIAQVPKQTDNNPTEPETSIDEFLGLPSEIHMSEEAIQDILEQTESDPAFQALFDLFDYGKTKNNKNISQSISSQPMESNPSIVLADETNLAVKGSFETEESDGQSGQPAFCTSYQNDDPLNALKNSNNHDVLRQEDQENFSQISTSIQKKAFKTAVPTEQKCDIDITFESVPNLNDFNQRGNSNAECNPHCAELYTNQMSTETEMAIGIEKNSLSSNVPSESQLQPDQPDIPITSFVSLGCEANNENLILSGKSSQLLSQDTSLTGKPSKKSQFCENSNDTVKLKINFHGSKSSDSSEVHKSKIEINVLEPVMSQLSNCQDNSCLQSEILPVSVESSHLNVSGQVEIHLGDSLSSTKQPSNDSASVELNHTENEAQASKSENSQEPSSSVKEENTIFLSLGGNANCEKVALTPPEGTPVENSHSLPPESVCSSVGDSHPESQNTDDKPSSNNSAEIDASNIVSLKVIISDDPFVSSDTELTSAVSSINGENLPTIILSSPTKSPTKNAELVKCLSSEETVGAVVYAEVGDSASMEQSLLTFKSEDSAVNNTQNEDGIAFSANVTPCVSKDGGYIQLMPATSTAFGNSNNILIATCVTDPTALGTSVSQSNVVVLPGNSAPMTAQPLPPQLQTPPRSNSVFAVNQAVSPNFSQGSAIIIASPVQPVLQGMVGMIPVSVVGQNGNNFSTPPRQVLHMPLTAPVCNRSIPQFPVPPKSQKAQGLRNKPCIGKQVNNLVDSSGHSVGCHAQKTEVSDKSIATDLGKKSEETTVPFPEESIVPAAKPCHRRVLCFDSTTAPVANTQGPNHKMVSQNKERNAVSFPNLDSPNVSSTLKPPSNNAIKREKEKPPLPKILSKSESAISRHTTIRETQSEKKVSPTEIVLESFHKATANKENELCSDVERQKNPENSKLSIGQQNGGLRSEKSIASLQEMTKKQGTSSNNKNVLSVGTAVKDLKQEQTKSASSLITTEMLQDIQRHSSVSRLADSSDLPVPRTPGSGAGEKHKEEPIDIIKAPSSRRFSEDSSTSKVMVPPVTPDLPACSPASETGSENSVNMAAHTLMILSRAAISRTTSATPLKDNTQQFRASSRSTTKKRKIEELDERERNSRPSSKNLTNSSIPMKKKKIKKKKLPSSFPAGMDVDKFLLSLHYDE

This is one part of the list. Small differences around the control level are noise.

Compound in the experiment: CN[C@@H]1C[C@H]2O[C@@](C)([C@@H]1OC)n1c3ccccc3c3c4c(c5c6ccccc6n2c5c31)C(=O)NC4 [staurosporine]
Nature of the experiment: log2 fold change of tryptic peptide abundance, ligand vs vehicle (limited proteolysis) (log2 ratio); higher = more trypsin-susceptible (destabilized). The conditions noted are these: ligand concentration: 20 uM; sample: K562 cleared lysate; digestion: 4 min, 22 C (HT-PELSA RT4min, Orbitrap Astral).
Regarding “COTL1 (peptide sequence: KELEEDFIKSELK, peptide start residue: 118) (UniProt Q14019)”, the log2 fold change was -0.64.

“ZNF638 (peptide sequence: EFGLLKPTSAR, peptide start residue: 1436) (UniProt Q14966)”: the log2 fold change is -0.213.

As to “NFYC (peptide sequence: MISAEAPVLFAK, peptide start residue: 60) (UniProt Q13952)”, the log2 fold change came to 0.117.

Turning to “UniProt Q14141 (peptide sequence: IHVCLYFIAPTGHSLK, peptide start residue: 148)”, the log2 fold change is -0.478.

Turning to “NMI (peptide sequence: EHSPDEFIKDEQNK, peptide start residue: 14) (UniProt Q13287)”, the log2 fold change is -0.173.

For “TRIM28 (peptide sequence: FQWDLNAWTK, peptide start residue: 391) (UniProt Q13263)”, the log2 fold change is -0.122.

Regarding “TARBP1 (peptide sequence: GRPAGGPDPSLQPR, peptide start residue: 78) (UniProt Q13395)”, the log2 fold change was -0.271.

For “UniProt Q14289 (peptide sequence: YLPEDFMESLKEDR, peptide start residue: 135)”, the log2 fold change is -0.236.

In the case of “ZNF460 (peptide sequence: HFNIHTGEKPYECLQCGK, peptide start residue: 410) (UniProt Q14592)”, the log2 fold change is -0.451.

For “UniProt Q14209 (peptide sequence: LAYVTYQDIR, peptide start residue: 296)”, the log2 fold change is 0.245.

As to “CKAP5 (peptide sequence: SVNLLVVK, peptide start residue: 1667) (UniProt Q14008)”, the log2 fold change was found to be 0.167.

On to “SNTA1 (peptide sequence: TIVFIIHSFLSAK, peptide start residue: 485) (UniProt Q13424)”, for which the log2 fold change worked out at 0.24.

For “TRA2A (peptide sequence: IDDSKEAMER, peptide start residue: 170) (UniProt Q13595)”, the log2 fold change was 0.316.

Consider “TOP3A (peptide sequence: AAMEMALR, peptide start residue: 24) (UniProt Q13472)”, for which the log2 fold change is -0.431.

As for “BMS1 (peptide sequence: KHFNSLHIPK, peptide start residue: 1159) (UniProt Q14692)”, the log2 fold change is 1.08.

Turning to “STX5 (peptide sequence: HLQTHSNTIVVSLQSK, peptide start residue: 167) (UniProt Q13190)”, the log2 fold change is -0.158.

Take “TDG (peptide sequence: GHHYPGPGNHFWK, peptide start residue: 149) (UniProt Q13569)”: the log2 fold change was 0.611.

For the target “PIN1 (peptide sequence: TGEMSGPVFTDSGIHIILR, peptide start residue: 143) (UniProt Q13526)”, the log2 fold change was -0.395.

Turning to “DHX34 (peptide sequence: LLEDAFFREEDYIR, peptide start residue: 38) (UniProt Q14147)”, the log2 fold change turned out to be 0.42.

With “NAE1 (peptide sequence: LADVLWNSQIPLLICR, peptide start residue: 139) (UniProt Q13564)”, the log2 fold change is 0.486.

Regarding “SNX1 (peptide sequence: LHAVVETLVNHRK, peptide start residue: 326) (UniProt Q13596)”, the log2 fold change was determined as 0.188.

Consider “TRIP12 (peptide sequence: GLPPHLFGPLGPR, peptide start residue: 410) (UniProt Q14669)”, for which the log2 fold change was -0.185.

Take “IRF3 (peptide sequence: SKDPHDPHK, peptide start residue: 97) (UniProt Q14653)”: the log2 fold change was determined as 0.0657.

Take “UBAP2L (peptide sequence: GNWEQPQNQNQTQHK, peptide start residue: 12) (UniProt Q14157)”: the log2 fold change was -0.139.

On to “KIF22 (peptide sequence: TVTGAKPLKK, peptide start residue: 519) (UniProt Q14807)”, for which the log2 fold change is 0.501.

As for “NPAT (peptide sequence: SSQLLSQDTSLTGKPSKK, peptide start residue: 530) (UniProt Q14207)”, the log2 fold change is -0.536.

With “CUL4A (peptide sequence: EVPEYLNHVSKR, peptide start residue: 255) (UniProt Q13619)”, the log2 fold change came to 0.55.

Regarding “GPS2 (peptide sequence: HQLFLQLK, peptide start residue: 84) (UniProt Q13227)”, the log2 fold change worked out at 0.557.
